# Laboratory results: doi:10.1101/2021.04.10.439302
# No constants are given. Whether binding was seen depends on the method and setting. In cells and extracts the contact can be indirect. Some binding calls cover weakened binding; strength is not graded here.
# T1: VAMP7 (mouse (endogenous in mouse brain)), P70280
# T1 chain: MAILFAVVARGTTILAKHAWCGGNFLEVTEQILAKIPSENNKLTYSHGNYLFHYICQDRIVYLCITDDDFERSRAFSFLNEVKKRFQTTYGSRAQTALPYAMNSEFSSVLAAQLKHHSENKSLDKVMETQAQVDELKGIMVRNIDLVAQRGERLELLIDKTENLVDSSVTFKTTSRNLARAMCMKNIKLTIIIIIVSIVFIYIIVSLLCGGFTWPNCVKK
# Target: T1, VAMP7 (mouse (endogenous in mouse …))
# Assay: co-IP
# Details: remark: other sources report otherwise
binder,measurement,value
"SNAP23, O09044 1-210 (protein) MDNLSPEEVQLRAHQVTDESLESTRRILGLAIESQDAGIKTITMLDEQGEQLNRIEEGMDQINKDMREAEKTLTELNKCCGLCICPCNRTKNFESGKNYKATWGDGGDNSPSNVVSKQPSRITNGQPQQTTGAASGGYIKRITNDAREDEMEENLTQVGSILGNLKNMALDMGNEIDAQNQQIQKITEKADTNKNRIDIANTRAKKLIDS",binding,binds
